# The other results are listed elsewhere or left out. Further columns of the screen follow, without active or inactive calls. Most of these compounds were active or inconclusive in the main read-out, so they are no random draw. The note in brackets gives the kind of curve behind each potency; many fits are weak.
# Assay: Confirmation Concentration-Response Assay for Modulators of Lamin A Splicing
# Conditions: HeLa lamin A splicing GFP/RFP minigene, Acumen, 48 h; for ratio activity: GFP/RFP ratio at top concentration; for ratio activity / RFP activity: at 46.1 µM; for RFP activity: RFP channel at top concentration
# Procedure, shortened: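 S3 HeLa cells stably expressing lamin A-EGFP splicing minigene and DsRed2, 600 cells/well in Opti-MEM with 2% FBS, compounds 48 h at 37C; laser-scanning cytometry (488 nm), GFP/RFP total intensity ratio analysed; 0.5% DMSO.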
# [1] = measured here: GFP/RFP ratio splicing readout
# [2] = measured here: RFP viability/nonspecific counter channel
SMILES,ratio activity,RFP activity,AC50 [1],AC50 [2]
COc1cc2c(cc1OC)C(C)N(C(=O)c1cc3ccccc3o1)CC2 (centres undefined),-27.5%,-13.8%,–,–
Cc1ccccc1C(=O)c1c[nH]c(C(=O)NCc2ccco2)c1,-25.7%,-26.5%,"3.16 µM [falling, full curve, poor fit]",–
CCOC(=O)Nc1ccc2c(c1)N(C(=O)CCN1CCOCC1)c1ccccc1S2,-23.3%,-1.28%,–,–
Cc1noc(C)c1-c1ccc2ncnc(NCc3ccccc3C(F)(F)F)c2c1,-37.9%,16.4%,"11.2 µM [falling, full curve, poor fit]",–
Cc1noc(C)c1-c1ccc2ncnc(NCc3ccc4[nH]ccc4c3)c2c1,-26.4%,12.1%,"3.98 µM [falling, full curve]",–
COc1ccc(CNC(=O)CSc2ccc(Br)cc2)cc1OC,-16.4%,-13.3%,–,–
CCCCNC(=O)c1onc(CSc2ccccc2CC)c1C(=O)O,-54.8%,24.6%,"35.5 µM [falling, partial curve, poor fit]",–
COc1ccc2nc(SCC(=O)N3CC(=O)Nc4ccccc43)c(C#N)cc2c1,-36.5%,-55%,"2.24 µM [falling, full curve, poor fit]",–
Oc1c(Cl)cc(Cl)c(Cl)c1Cc1c(O)c(Cl)cc(Cl)c1Cl,-12.9%,10.2%,–,"0.447 µM [rising, full curve, poor fit]"
COc1cc(N)c(Cl)cc1C(=O)NC1CCN(Cc2ccccc2)CC1,-15.1%,-5.69%,–,–
Cc1noc(C)c1-c1ccc2ncnc(NCC3CCCCN3C)c2c1 (centres undefined),-35.2%,7.98%,"7.94 µM [falling, full curve, poor fit]",–
CCOc1ccccc1C(=O)N1CCN(C(c2ccccc2)c2ccccc2)CC1,-15.9%,1.04%,–,–
CC1=CC(=O)c2ccccc2C1=O,202%,-98.9%,–,"35.5 µM [falling, partial curve, poor fit]"
Cc1cc(C)nc(Sc2nc(C)nc3c2oc2ccccc23)n1,-47.2%,2.04%,"3.55 µM [falling, full curve, poor fit]",–
Cc1noc(C)c1-c1ccc2ncnc(NCc3ccccc3Cl)c2c1,-39.5%,-8.82%,"14.1 µM [falling, full curve, poor fit]",–
CC(=O)Nc1ccccc1OCC(=O)c1cc(C)n(Cc2cccs2)c1C,-24.2%,-21.6%,–,–
COC1=C(N)C(=O)c2nc(-c3nc(C(=O)O)c(C)c(-c4ccc(OC)c(OC)c4O)c3N)ccc2C1=O,-38.9%,-21.4%,"0.000631 µM [falling, full curve, poor fit]",–
COc1ccc2cc3[n+](cc2c1OC)CCc1cc2c(cc1-3)OCO2,-20%,5.25%,–,–
O=c1cc(CSc2nnc(-c3cccs3)n2Cc2ccccc2)nc2sc3ccccc3n12,-3.73%,-28.4%,–,–

SMILES,ratio activity,RFP activity,AC50 [1],AC50 [2]
Oc1ccccc1N=Nc1nc(-c2ccccc2)c(-c2ccccc2)[nH]1,4.93%,-73.8%,–,"25.1 µM [falling, partial curve, poor fit]"
Cc1cc(C)cc(SCc2noc(C(=O)NC(C)C)c2C(=O)O)c1,-36.7%,-8.12%,"31.6 µM [falling, single point]",–
CCCCOc1ccc(OC(=O)c2cccnc2)cc1,-42.9%,-2.8%,"4.47 µM [falling, full curve, poor fit]",–
Cc1cc(C)c(Cn2cnc(-c3ccc([N+](=O)[O-])cc3)c2)c(C)c1,-34.6%,-23.6%,"2.82 µM [falling, full curve]",–
C/C(N)=C(/C#N)C(=O)COC(=O)c1cc(-c2ccc(Br)cc2)nc2ccccc12,-6.41%,-26.5%,–,–
COc1cc(/C=N/Nc2ncnc3sc4c(c23)CCC4)ccc1O,-17.6%,31%,–,"1.26 µM [rising, full curve, poor fit]"
CCCCCOc1ccc(OC(=O)c2ccncc2)cc1,-45.2%,-20.5%,"5.01 µM [falling, full curve, poor fit]",–
N=C1S/C(=C\c2cccc3ccccc23)C(=O)N1c1ccc(F)cc1,-22.2%,-84.3%,–,"10 µM [falling, full curve, poor fit]"
CC[C@H]1CN2CCc3cc(OC)c(OC)cc3[C@@H]2C[C@@H]1C[C@H]1NCCc2cc(OC)c(OC)cc21,-3.47%,-97%,"0.158 µM [falling, full curve, poor fit]",–
Cc1noc(C)c1-c1ccc2ncnc(NCc3ccc(C(F)(F)F)cc3)c2c1,-31.1%,-0.249%,"11.2 µM [falling, partial curve, poor fit]",–
COc1cc(CNc2ncnc3ccc(-c4c(C)noc4C)cc23)cc(OC)c1OC,-42.6%,31.6%,"5.01 µM [falling, full curve, poor fit]",–
CC(=O)[C@@]1(O)CC[C@H]2[C@H]3C[C@@H](C)C4=CC(=O)C=C[C@]4(C)[C@@]3(F)[C@@H](O)C[C@]21C,-4.69%,-28%,–,"2.51 µM [falling, full curve, poor fit]"
Cc1cccc(NC(=S)NCCC(C)C)c1,-11.2%,-17.3%,–,–
Cc1noc(C)c1-c1ccc2ncnc(NCc3ccc(Br)cc3)c2c1,-31.7%,13.4%,"14.1 µM [falling, full curve, poor fit]",–
Cc1noc(C)c1-c1ccc2ncnc(NCc3cc(F)cc(F)c3)c2c1,-30.4%,18.3%,"10 µM [falling, partial curve, poor fit]",–
Cc1noc(C)c1-c1ccc2ncnc(NCc3cccn3C)c2c1,-34.7%,-11.8%,"14.1 µM [falling, partial curve, poor fit]",–
Cc1ccc(CNc2ncnc3ccc(-c4c(C)noc4C)cc23)cc1,-27.5%,-1.75%,"7.08 µM [falling, full curve, poor fit]",–
CCC(=Nc1ccc(Cc2ccncc2)cc1)c1c(O)n(C)c(=O)n(C)c1=O,-5.71%,-31.4%,–,–
Cc1cc(C(=O)N/N=C/c2cc([N+](=O)[O-])cc(C)c2O)n[nH]1,-34.4%,-5.58%,"17.8 µM [falling, partial curve, poor fit]",–

# In the list so far, 3 have a Cl atom:
SMILES,ratio activity,RFP activity,AC50 [1],AC50 [2]
Oc1c(Cl)cc(Cl)c(Cl)c1Cc1c(O)c(Cl)cc(Cl)c1Cl,-12.9%,10.2%,–,"0.447 µM [rising, full curve, poor fit]"
COc1cc(N)c(Cl)cc1C(=O)NC1CCN(Cc2ccccc2)CC1,-15.1%,-5.69%,–,–
Cc1noc(C)c1-c1ccc2ncnc(NCc3ccccc3Cl)c2c1,-39.5%,-8.82%,"14.1 µM [falling, full curve, poor fit]",–

# The listing continues.

SMILES,ratio activity,RFP activity,AC50 [1],AC50 [2]
CC12CCC(C/C1=N\N=C1\NC(=O)/C(=C\c3cccc(Br)c3)S1)C2(C)C (centres undefined),-16.4%,-75.5%,–,"14.1 µM [falling, partial curve, poor fit]"
COc1ccccc1OCC(=O)NN=C(Cc1ccccc1)Cc1ccccc1,-16.2%,-27.1%,–,"7.94 µM [falling, partial curve, poor fit]"
COc1cccc(CNc2ncnc3ccc(-c4c(C)noc4C)cc23)c1,-22.1%,-30.8%,–,"11.2 µM [falling, full curve, poor fit]"
CC(C)(C)c1nc(SCC(=O)Nc2nc3c(s2)CCCC3)c2ccccc2n1,-19.7%,-53.3%,"1.41 µM [falling, full curve]","2.24 µM [rising, full curve, poor fit]"
Nc1ccc(Cc2nc3cc4ccccc4cc3[nH]2)cc1,-51.8%,18.6%,"5.01 µM [falling, full curve, poor fit]",–
Cc1noc(C)c1-c1ccc2ncnc(NCc3ccccc3F)c2c1,-30.4%,8.27%,"10 µM [falling, full curve, poor fit]",–
Cc1noc(C)c1-c1ccc2ncnc(NC(C)c3ccccc3)c2c1 (centres undefined),-36.3%,-4.28%,"11.2 µM [falling, full curve, poor fit]",–
Cc1c(Cl)ccc2sc(NC(=O)CN3C(=O)c4ccccc4C3=O)nc12,-11.1%,-6.77%,–,"0.631 µM [falling, full curve, poor fit]"
Cc1onc(-c2ccccc2)c1C(=O)NC(=S)NNC(=O)c1ccccc1O,-22.4%,67%,–,"3.98 µM [rising, full curve, poor fit]"
Cc1noc(C)c1-c1ccc2ncnc(NCC3CCN(C)CC3)c2c1,-38.4%,-13.4%,"7.94 µM [falling, full curve, poor fit]",–
Cc1noc(C)c1-c1ccc2ncnc(NCc3ccc(C(F)(F)F)o3)c2c1,-38.2%,17.6%,"10 µM [falling, full curve]",–
Cc1noc(C)c1-c1ccc2ncnc(NC(C)c3ccco3)c2c1 (centres undefined),-6.52%,24.4%,"2.24 µM [falling, full curve, poor fit]",–
CC1CN(C(=O)N2c3ccccc3Sc3ccccc32)CC(C)O1 (centres undefined),-46.3%,17.2%,"12.6 µM [falling, full curve, poor fit]",–
O=C(NO)C1CC2C=CC1C2 (centres undefined),-36.8%,-18.9%,"12.6 µM [falling, partial curve, poor fit]",–
Cc1noc(C)c1-c1ccc2ncnc(NCc3ccc(F)cc3)c2c1,-34.9%,-32.4%,"15.8 µM [falling, partial curve, poor fit]","12.6 µM [falling, single point]"
Nc1ccc(N2CCN(C(=O)c3cccs3)CC2)cc1,-46.6%,-5.92%,"5.01 µM [falling, full curve, poor fit]",–
Cc1ccc(C(=O)CN2/C(=C(\O)c3ccccc3)C(=O)c3ccccc3S2(=O)=O)c(C)c1,-19.5%,32.2%,–,"22.4 µM [rising, partial curve, poor fit]"
CCOc1c(Cl)cc(C(=O)Nc2ccccc2C(=O)O)cc1Cl,-45.4%,13.4%,"7.08 µM [falling, full curve]",–

# Source: PubChem BioAssay AID1498 (National Center for Advancing Translational Sciences (NCATS), 2009)
